PubChem BioAssay AID686937 – Drosophila RNAi Screening Center – 2013

Screen: 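Genes whose loss weakens secretory pathway function in fly cells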 (primary screen)
System: Drosophila S2 cells expressing secreted horseradish peroxidase
Reagents: long dsRNA against Drosophila genes
Duration: about 5.5 days (5 days dsRNA, then 12 h reporter induction)
Conditions: reporter expression induced after 5 days of dsRNA, read 12 h later; inducer not stated
Measurement: 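After 5 days of dsRNA and 12 h of reporter induction, medium peroxidase read by chemiluminescence and scored as per-plate z-score; higher values mean more reporter released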
Reading the numbers: z-score: higher = more reporter secreted into medium
The screen tested about 23,000 reagents; below is an unselected part of those that have a named target and a result. 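Reduced-secretion tags in replicate 1 do not always agree with the z-scores; no criterion for assigning the tags was given.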 Not all columns of the deposit are shown. Not stated in the record: the amount of reagent.

noc [DRSC03580] → z-score, replicate 1: 0.32
Sf3a2 [DRSC09801] → z-score, replicate 1: -2.49
ocm [DRSC04360] → z-score, replicate 1: 0.92
Grip [DRSC17940] → z-score, replicate 1: -3.11
Grip [DRSC18395] → z-score, replicate 1: 0.22
CG43059 [DRSC08916] → z-score, replicate 1: 0.44
rec [DRSC14998] → z-score, replicate 1: 0.06
rec [DRSC15656] → z-score, replicate 1: 0.11
bb8 [DRSC15578] → z-score, replicate 1: 0.23
eIF3h [DRSC01995] → z-score, replicate 1: 0.56
Ir51b [DRSC05540] → z-score, replicate 1: 0.34
Cp15 [DRSC11118] → z-score, replicate 1: 0.28
CG12576 [DRSC20621] → z-score, replicate 1: 0.22
Gr94a [DRSC13597] → z-score, replicate 1: 0.46

Reformatted: entries from further up.
Target gene,amplicon,"z-score, replicate 1"
noc,DRSC03580,0.32
Sf3a2,DRSC09801,-2.49
ocm,DRSC04360,0.92
Grip,DRSC17940,-3.11

The listing continues.
CG15373 [DRSC19663] → z-score, replicate 1: 0.3
CG11141 [DRSC06048] → z-score, replicate 1: 0.09
CG15549 [DRSC15087] → z-score, replicate 1: 0.15
Nct [DRSC16172] → z-score, replicate 1: 0.26
Gr63a [DRSC08438] → z-score, replicate 1: 0.15
7B2 [DRSC11991] → z-score, replicate 1: 0.31
Kebab [DRSC00827] → z-score, replicate 1: 0.25
CG15912 [DRSC18105] → z-score, replicate 1: 0.29
CG14621 [DRSC20635] → z-score, replicate 1: 0.1
CG1737 [DRSC19771] → z-score, replicate 1: -2.5
CG12502 [DRSC08281] → z-score, replicate 1: 0.38
Hsc70-3 [DRSC20253] → z-score, replicate 1: -4.06
140up [DRSC12634] → z-score, replicate 1: 0.59
RhoGAP54D [DRSC06990] → z-score, replicate 1: -0.36
CG12426 [DRSC14516] → z-score, replicate 1: 0.39
CG15638 [DRSC01875] → z-score, replicate 1: 0.56
Clk [DRSC11117] → z-score, replicate 1: 0.15
Boot [DRSC06412] → z-score, replicate 1: 0.24
CG10405 [DRSC14238] → z-score, replicate 1: -0.57
Art2 [DRSC00627] → z-score, replicate 1: 0.35
Khc [DRSC07448] → z-score, replicate 1: 0.24
Gclm [DRSC15677] → z-score, replicate 1: 0.37
CG13562 [DRSC04200] → z-score, replicate 1: -0.03
CG34242 [DRSC09185] → z-score, replicate 1: -0.16
Letm1 [DRSC04476] → z-score, replicate 1: -0.45
Cpr49Ag [DRSC07203] → z-score, replicate 1: 0.5
